Measured values taken from PMC9974436.
These are yes or no findings as the source states them, for the method shown. Binding seen in cells or lysates may run through a third protein. Some binding calls cover weakened binding; strength is not graded here. For some of these results: Where a sequence is shown, tags or fusion partners need not be part of it. One block for each binder: values may come before it.

How the values were obtained:
[1] = target: T1, 1700029I15Rik (mouse (endogenous in testis)) (UniProt Q8CF31); assay: co-IP; co-IP from mouse testes and Western blot
T1 sequence: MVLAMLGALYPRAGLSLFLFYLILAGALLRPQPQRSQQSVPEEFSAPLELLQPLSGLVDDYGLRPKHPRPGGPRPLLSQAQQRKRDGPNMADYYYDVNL

[2] = target: T2, 1700029I15Rik-3 × FLAG (mouse) (UniProt Q8CF31); assay: co-IP; lysates of HEK293T cells transiently expressing 1700029I15Rik-3 × FLAG; antibody-conjugated magnetic beads; SDS-PAGE and Western blot of endogenous partners
T2 sequence: T1 sequence

[3] = target: T3, 1700029I15Rik (mouse (endogenous in testis)), Q8CF31; assay: co-IP; co-IP from mouse testes and Western blot; conditions: remark: other sources report otherwise
T3 chain: T1 sequence

binding [1]: no binding
B1: equatorin (EQTN) (protein, UniProt Q9D9V2 21-337)
chain: QPIVGQEPGVTLSDEEQYYADEENNTDGNSVALHKLEENEMDTPANEKTGNYYKDIKQYVFTTPNIKGSEVSVTATTNLEFAVKKNYKASKPTASGEEEKPSESSRKTSTPNIPAFWTILSKAVNETAVSMDDKDQFFQPIPASDLNATNEDKLSELEEIKLKLMLGISLMTLVLLIPLLIFCFATLYKLRHLRDKSYESQYSINPELATLSYFHPTEGVSDTSFSKSADSNSYWVHNSSEMRRSRTRRSKSKPMDFSAGSNQTVLTDESSFLPPEETRFLLPEEPGKELIVERGPMQAMNEIDAQLLLNKEGSPSN

binding [2]: no binding
B3: endogenous TMED10 of HEK293T cells (protein, UniProt P49755 32-219)
chain: ISFHLPINSRKCLREEIHKDLLVTGAYEISDQSGGAGGLRSHLKITDSAGHILYSKEDATKGKFAFTTEDYDMFEVCFESKGTGRIPDQLVILDMKHGVEAKNYEEIAKVEKLKPLEVELRRLEDLSESIVNDFAYMKKREEEMRDTNESTNTRVLYFSIFSMFCLIGLATWQVFYLRRFFKAKKLIE

Continued, binder first:

B2: endogenous OSTC of HEK293T cells (protein, UniProt Q9NRP0 1-149)
chain: METLYRVPFLVLECPNLKLKKPPWLHMPSAMTVYALVVVSYFLITGGIIYDVIVEPPSVGSMTDEHGHQRPVAFLAYRVNGQYIMEGLASSFLFTMGGLGFIILDRSNAPNIPKLNRFLLLFIGFVCVLLSFFMARVFMRMKLPGYLMG
binding [2]: binds

B4: Izumo sperm–egg fusion 1 (IZUMO1), Q9D9J7 22-397 (protein)
chain: CIKCDQFVTDALKTFENTYLNDHLPHDIHKNVMRMVNHEVSSFGVVTSAEDSYLGAVDENTLEQATWSFLKDLKRITDSDLKGELFIKELLWMLRHQKDIFNNLARQFQKEVLCPNKCGVMSQTLIWCLKCEKQLHICRKSLDCGERHIEVHRSEDLVLDCLLSWHRASKGLTDYSFYRVWENSSETLIAKGKEPYLTKSMVGPEDAGNYRCVLDTINQGHATVIRYDVTVLPPKHSEENQPPNIITQEEHETPVHVTPQTPPGQEPESELYPELHPELYPELIPTVAQNPEKKMKTRLLILLTLGFVVLVASIIISVLHFRKVSAKLKNASDEVKPTASGSKSDQSLSQQMGLKKASQADFNSDYSGDKSEATEN
binding [3]: no binding
